Experimental data from article doi:10.1101/2023.09.01.555900 (bioRxiv, 2023).
No constants are given. Whether binding was seen depends on the method and setting.

Target: Rof (Rho-off, also called YaeO) (E. coli) (UniProt P0AFW8)
Assay: SEC

binding: no binding
B1: Rof (Rho-off, also called YaeO) (natural protein, E. coli)
chain: MNDTYQPINCDDYDNLELACQHHLMLTLELKDGEKLQAKASDLVSRKNVEYLVVEAAGETRELRLDKITSFSHPEIGTVVVSES
